Results are given in words; binding and its absence hold for the method and conditions named. A result given as binding can be weak or reduced; the word gives no strength. Where a sequence is shown, tags or fusion partners need not be part of it.
B1: full-length Btt1, yeast two-hybrid fusion (protein, UniProt P40314 1-149)
chain: MPVDQEKLAKLHKLSAANKVGGTRRKINKKGNLYNNNDKDNTKLQAELHKLHPMTIENVAEANFFKKNGKVLHFNSAVVQIAPQCNLTMIHGQPKENTLNGLYPSVASQLGSQELEYLTGLAHNLENEQTVLDQLGDRCSETKQQVMNS
B2: full-length Egd1, yeast two-hybrid fusion (protein, UniProt Q02642 1-157)
chain: MPIDQEKLAKLQKLSANNKVGGTRRKLNKKAGSSAGANKDDTKLQSQLAKLHAVTIDNVAEANFFKDDGKVMHFNKVGVQVAAQHNTSVFYGLPQEKNLQDLFPGIISQLGPEAIQALSQLAAQMEKHEAKAPADAEKKDEAIPELVEGQTFDADVE

Target: Egd2 NAC domain, yeast two-hybrid fusion (S. cerevisiae)
Assay: two-hybrid; reporter strain PJ69-4A; bait fused to Gal4 DNA-binding domain, prey fused to Gal4 activation domain; growth on SC-Leu-Trp-His (HIS3) and SC-Leu-Trp-Ade (ADE2) plates, 3 days at 30°C

Binder | binding
B1 | binds
B2 | binds
